Data source: PubChem BioAssay AID1259254 (NCATS, 2017)
In all, the deposit lists about 59,000 reagents; below is a part drawn at random. Over the whole deposit, about 1,550 (2.6%) were called active. 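G2 share is only a proxy for re-replication; each gene was hit by three separate siRNAs, and active genes were retested.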 The numbers tell different reagents against one gene apart. Further read-outs or replicates are left out here. No sequences are given here. Not given: the amount of reagent.

- Test: 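Genome-wide screen for genes that prevent DNA re-replication in cancer cells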 (primary screen)
- Cell system: human HCT116 colorectal cancer cells
- Reagent: single siRNA against human genes
- Duration: 3 days
- Read-out: 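Imaged Hoechst DNA stain sorts each cell into a cycle phase by DNA amount; per plate, G2 fraction set to 0% for non-targeting and 100% for GMNN siRNA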
- Direction: G2 robust z-score and G2 cells, % of GMNN control: higher = more G2 cells, more excess DNA replication
- Rule for the call: 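An siRNA counts as active if its G2 robust z-score lies at least 5 MADs above the screen median; here such calls match roughly 38% of GMNN control or more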

Target gene,reagent no.,G2 robust z-score,"G2 cells, % of GMNN control",activity call
PRDM5 (PR/SET domain 5),1,-0.293,0.905,inactive
PRDM5 (PR/SET domain 5),2,0.276,4.91,inactive
PRDM5 (PR/SET domain 5),3,-0.224,1.39,inactive
FAM43A (family with sequence similarity 43 member A),1,-0.665,-1.71,inactive
FAM43A (family with sequence similarity 43 member A),2,-0.393,0.2,inactive
FAM43A (family with sequence similarity 43 member A),3,-0.684,-1.84,inactive
METTL17 (methyltransferase like 17),1,-0.162,1.82,inactive
METTL17 (methyltransferase like 17),2,6.19,46.5,active
METTL17 (methyltransferase like 17),3,10.7,78.1,active
OAS3 (2'-5'-oligoadenylate synthetase 3),1,-0.646,-1.58,inactive
OAS3 (2'-5'-oligoadenylate synthetase 3),2,1.63,14.5,inactive
OAS3 (2'-5'-oligoadenylate synthetase 3),3,-0.776,-2.49,inactive
"METRN (meteorin, glial cell differentiation regulator)",1,-0.223,1.4,inactive
"METRN (meteorin, glial cell differentiation regulator)",2,-0.599,-1.25,inactive
"METRN (meteorin, glial cell differentiation regulator)",3,1.27,11.9,inactive
VGLL2 (vestigial like family member 2),1,1.04,10.3,inactive
VGLL2 (vestigial like family member 2),2,-0.279,1.01,inactive
VGLL2 (vestigial like family member 2),3,-0.601,-1.26,inactive
KIAA0930,1,-0.0181,2.84,inactive
KIAA0930,2,-0.511,-0.628,inactive
KIAA0930,3,1.3,12.1,inactive
ZBTB1 (zinc finger and BTB domain containing 1),1,-0.0331,2.73,inactive
ZBTB1 (zinc finger and BTB domain containing 1),2,-0.546,-0.876,inactive
ZBTB1 (zinc finger and BTB domain containing 1),3,-0.371,0.358,inactive
ZNF267 (zinc finger protein 267),1,0.738,8.16,inactive
ZNF267 (zinc finger protein 267),2,-0.589,-1.18,inactive
ZNF267 (zinc finger protein 267),3,-0.398,0.165,inactive
GASK1B (golgi associated kinase 1B),1,-1.2,-5.5,inactive
GASK1B (golgi associated kinase 1B),2,0.0903,3.6,inactive
GASK1B (golgi associated kinase 1B),3,0.382,5.66,inactive
PCDHB5 (protocadherin beta 5),1,2.13,17.9,inactive
PCDHB5 (protocadherin beta 5),2,4.96,37.9,inactive
PCDHB5 (protocadherin beta 5),3,-0.467,-0.321,inactive
NPM1 (nucleophosmin 1),1,1.68,14.8,inactive
NPM1 (nucleophosmin 1),2,-0.438,-0.114,inactive
NPM1 (nucleophosmin 1),3,-0.144,1.95,inactive
BBLN (bublin coiled coil protein),1,-0.0839,2.38,inactive
BBLN (bublin coiled coil protein),2,4.4,33.9,inactive
BBLN (bublin coiled coil protein),3,-0.402,0.138,inactive
PIK3R2 (phosphoinositide-3-kinase regulatory subunit 2),1,1.55,13.9,inactive
PIK3R2 (phosphoinositide-3-kinase regulatory subunit 2),2,0.026,3.15,inactive
PIK3R2 (phosphoinositide-3-kinase regulatory subunit 2),3,1.26,11.9,inactive
LIPH (lipase H),1,-0.335,0.611,inactive
LIPH (lipase H),2,-0.277,1.02,inactive
LIPH (lipase H),3,1.33,12.3,inactive
TMEM268 (transmembrane protein 268),1,0.934,9.54,inactive
TMEM268 (transmembrane protein 268),2,1.3,12.1,inactive
TMEM268 (transmembrane protein 268),3,0.0399,3.25,inactive
